Laboratory results as given in article PMC10163288.
The other results are listed elsewhere or left out.

B1: il2ra_site1_1z92_normal_mot_0a69b5c9b02373fb877a90f2b4b0d8e1_0001_1_af2_000000257_0001_17_32_H_._5511cb2176c827d1feb3066af2f534d5_0001_af2_0001_0000300018_00000 … (protein)
chain: PEELAEKARELLENGNPEEAEKVLEKLARELGTEEAFKKDLELAERHLGDPRAALQALIDNLARD
B2: il2ra_site2_2erj_normal_mot_HHH_b2_05633_000000270_0001_38_52_H_._HHH_b2_02780_0001_0000100003_0000001_0 (protein)
chain: SSSSSSREVSEEVSELLALLFEIKDERELRELLEEAKELAEEVNSEFLKRYVEFAERDISSSSSS
B3: il2ra_site2_2erj_normal_mot_HHH_b2_05633_000000270_0001_38_52_H_._HHH_b1_01874_0001_0000700038_0000001_0 (protein)
chain: SSSSTESVEEVSRIALQVIELFKEGNPEEAREILEEAIEKFRELNDETAVRYLEYLRRDISSSSS
B4: il2ra_site1_3nfp_normal_mot_HHH_b1_08771_af2_000000209_0001_39_54_H_._HHH_b1_06608_af2_0001_0000800042_0000001_0_af2pred_0001_af2pred_swapped (protein)
chain: SSSSDKNRRVEELLKELSELNQHGDEEEAKRLIEEIRELVEELNNPLARELLEELEKLLNLSSSS
B5: il2ra_site1_2b5i_sap_20_mot_9a773f325bc24391a11cd301277c1e75_0001_1_000000041_0001_1_15_H_._HHH_b1_03334_0001_0000400022_0000001_0_0001_af2pred_dldesign_0_af2pr … (protein)
chain: SSSSSERRQLIEELTALLKELAAKGDEEALDEVEEKATEALRSKDEELLKEAIDLAKSLLSSSSS
B6: il2ra_site1_1z92_normal_mot_01209686ea234b34325f918445e6eade_0001_af2_000000144_0001_18_33_H_._9b48fa28f67d9e4d24aa4ae74bce6cf0_0001_0001_0000300014_0000001_0 (protein)
chain: DEIVEELRRLAEELKDPDIERVAELVQQMLRLGLPPEKAAKAVLKALEIQGDPELVELLEELLRK
B7: il2ra_site1_2b5i_sap_12_mot_HHH_b1_05608_000000027_0001_1_14_H_._HHH_b1_00614_0001_0000400027_0000001_0_0001_af2pred_dldesign_0_af2pred (protein)
chain: SSSSDELRDLIEEYIRRARELAAAGRLEEAKKLLIMARRAARRAGDAELLARVEALLAEISSSSS
B8: il2ra_site1_1z92_sap_16_mot_3addaf244d7ecd9a0b92efa75fcb2124_0001_1_000000006_0001_1_15_H_._HHH_b1_05664_0001_0000200013_0000001_0_0001 (protein)
chain: GKKHVEQAEKYAGGDPETFVRLVLRLLKAAGDLSPEELEELEEKLEELLKRDPEKAKKLAEELLN
B9: il2ra_site1_1z92_sap_14_mot_HHH_b1_08133_000000026_0001_1_19_H_._HHH_b1_03598_0001_0000500020_0000001_0_0001_af2pred_0001_af2pred (protein)
chain: SSAEKLLEEAVEKNDEELLREFIELLLKDIGDPHLVRRLLEILVKKLGLPPEVLERLRELLEELT
B10: il2ra_site2_2erj_normal_mot_HHH_b2_08201_000000058_0001_20_36_H_._HHH_b2_08333_0001_0000600017_0000001_0 (protein)
chain: SSSSSEEEEEVEELIERVRKLIKEGNPEEAEELLSRAFEIAYQAGNVELAAELIELAALLFSSSS
B11: il2ra_site1_2b5i_sap_14_mot_HHH_b1_04602_000000079_0001_23_39_H_._418b0f4789b0b78872a3c6dbebafb2a7_0001_af2_0001_0000100001_0000001_0_0001_af2pred_dldesign_0_af … (protein)
chain: SSSSSPETEEALRLFLEADKLYQAGKEEEAKEVLEKALEVAKKGKATSLEKAIERILEELSSSSS
B12: il2ra_site1_2b5i_normal_mot_HHH_b2_07442_af2_000000069_0001_1_16_H_._HHH_b1_02970_0002_0000100004_0000001_0_af2pred_dldesign_0_af2pred (protein)
chain: SSSSDEVSDKIYELYKEALKLWREGKKEEAIKKLEEALKLAKANNDPRAAEIERLIEYLKSSSSS
B13: il2ra_site2_3nfp_normal_mot_HHH_b1_00660_af2_000000090_0001_40_57_H_._HHH_b2_00546_0001_0000100002_0000001_0_af2pred_0001_1_af2pred_swapped (protein)
chain: SSSSDELEERVRELLKRAEELREEGNPEEARKLLAEAAQLAYENNDFELFALINEVREKLESSSS
B14: il2ra_site2_3nfp_sap_9_mot_HHH_b1_04622_000000276_0001_1_16_H_._HHH_b1_04070_0001_0000800040_0000001_0_0001 (protein)
chain: SDEEVAEYIRIALELAKEAARDPRIRELIEEVLKEFEEAEEKNDEEALSEVAQKAMELSKEAARS
B15: il2ra_site2_3nfp_sap_18_mot_ems_p1-14H-GBL-14H-GABBL-15H_0148_0001_0001_0002_000000194_0001_18_31_H_._23ebfa62fd02fe94bef511ea015e2715_0001_0001_0000100007_0000 … (protein)
chain: SSSDEEEREVEELIKELEELLRQGNPEEVERVALRAAALAARANNFELFARVVELMHKAVRSSSS
B16: il2ra_site2_3nfp_normal_mot_HHH_b1_00660_af2_000000090_0001_40_57_H_._HHH_b1_05967_0001_0000100007_0000001_0 (protein)
chain: SSSSDKEEEIERLLEQLKRAIEEGDEELARKLIREIAQLIYELQDFELFAILNELRALLASSSSS
B17: il2ra_site1_2b5i_sap_25_mot_HHH_b1_06833_000000178_0001_1_19_H_._806091bfbcaa362723928a6cd30e0ec0_0001_af2_0001_0000600031_0000001_0_0001_af2pred_dldesign_0_af2 … (protein)
chain: SSSSSSGKEVRRLILEADRLKKAGKEEEAKKLLEEALKLAKELGSKNLVKAIESALESISSSSSS
B18: il2ra_site1_2b5i_sap_16_mot_HHH_b2_03886_000000131_0001_1_17_H_._HHH_b2_08237_0001_0000100005_0000001_0_0001_af2pred_dldesign_0_af2pred (protein)
chain: SSSSSSPEVEEKVNAYKEAAAKEEDPLLRYKLLKLALKIAKKGNNEELVAELEKLLKELESSSSS
B19: il2ra_site2_3nfp_sap_21_mot_HHH_b1_06577_af2_000000152_0001_20_36_H_._HHH_b2_07686_0001_0000600063_0000001_0_0001 (protein)
chain: SSSSDEDEERVEKLIEEIERLLEEGDRDEAARLLLEATELAARINNDELARKLLELFLKIQSSSS

These binders were tested against il2ra, P01589 (assay: yeast display titration).

Binder | apparent Kd
B1 | inactive: no binding seen
B2 | inactive: no binding seen
B3 | inactive: no binding seen
B4 | inactive: no binding seen
B5 | inactive: no binding seen
B6 | inactive: no binding seen
B7 | inactive: no binding seen
B8 | inactive: no binding seen
B9 | inactive: no binding seen
B10 | inactive: no binding seen
B11 | inactive: no binding seen
B12 | inactive: no binding seen
B13 | inactive: no binding seen
B14 | inactive: no binding seen
B15 | inactive: no binding seen
B16 | inactive: no binding seen
B17 | inactive: no binding seen
B18 | inactive: no binding seen
B19 | inactive: no binding seen

Looked up one by one from the entries so far, 2 records:
Binder | apparent Kd
B13 | inactive: no binding seen
B6 | inactive: no binding seen
